# Values of other authors as cited in patent publication US20230144898A1, “INHIBITOR OF ASPARTIC ACID SYNTHESIS IN TUMOR CELLS, INHIBITOR OF SPHEROID FORMATION OF TUMOR CELLS, INHIBITOR OF TUMOR CELL METASTASIS, ACTIVITY ENHANCER OF GLYCOLYTIC INHIBITOR, AND PHARMACEUTICAL COMPOSITION FOR SUPPRESSING AND/OR PREVENTING TUMOR METASTASIS” (CCI HOLDINGS INC., priority 2020, published 2023).
# At least one structure is not confirmed: it was looked up by name or label, or the drawing left a doubt.
# Test system: primary tumor
# Settings: mouse, in vivo; cited from earlier work
compound,measurement,value
CCN(CC)CCNC(=O)c1c(C)[nH]c(/C=C2\C(=O)Nc3ccc(F)cc32)c1C [Sunitinib],metastasis of tumor cells to a lymph node and lung,promoted
same,proliferation of the primary tumor,suppressed
